Measured values published in paper PMC11423137.
Results are given in words; binding and its absence hold for the method and conditions named. Binding seen in cells or lysates may run through a third protein. Some binding calls cover weakened binding; strength is not graded here. One block for each molecule: values may come before it.

Chains of the proteins cited; added tags and fusions are not shown.
UniProt P21673: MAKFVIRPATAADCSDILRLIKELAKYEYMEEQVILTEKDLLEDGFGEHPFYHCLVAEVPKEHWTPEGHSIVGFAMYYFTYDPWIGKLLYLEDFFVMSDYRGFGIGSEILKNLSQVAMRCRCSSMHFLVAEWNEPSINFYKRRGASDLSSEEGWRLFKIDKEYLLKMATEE
UniProt P67809: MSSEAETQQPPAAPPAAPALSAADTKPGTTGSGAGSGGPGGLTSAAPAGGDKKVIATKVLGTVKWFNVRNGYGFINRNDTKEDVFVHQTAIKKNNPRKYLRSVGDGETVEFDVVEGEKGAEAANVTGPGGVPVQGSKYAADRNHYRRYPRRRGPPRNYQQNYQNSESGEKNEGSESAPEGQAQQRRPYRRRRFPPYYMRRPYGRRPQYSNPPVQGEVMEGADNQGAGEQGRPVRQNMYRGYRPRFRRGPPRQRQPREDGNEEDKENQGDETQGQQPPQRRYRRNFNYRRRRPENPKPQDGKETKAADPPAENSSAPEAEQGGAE

Columns and labels:
[1] = target: Spermidine/Spermine N1-acetyltransferase 1 (human (endogenous in BT549 and SUM159PT)) (UniProt P21673); test: co-IP; lysates in IP lysis buffer with PMSF; primary antibody overnight at 4 °C, protein A/G magnetic beads 3 h at 4 °C; immunoblot; BT549 and SUM159PT (SAT1-YBX1), BT549 (HERC5-YBX1)
[2] = target: Y-box binding protein 1 (human (endogenous in BT549 and SUM159PT)) (UniProt P67809); test: as above

- binding [1]: binds
Molecule: Y-box binding protein 1 (from UniProt P67809 1-324)

- binding [2]: binds
B1: E3 ligase HERC5 (enzyme, UniProt Q9UII4 1-1024)
chain: MERRSRRKSRRNGRSTAGKAAATQPAKSPGAQLWLFPSAAGLHRALLRRVEVTRQLCCSPGRLAVLERGGAGVQVHQLLAGSGGARTPKCIKLGKNMKIHSVDQGAEHMLILSSDGKPFEYDNYSMKHLRFESILQEKKIIQITCGDYHSLALSKGGELFAWGQNLHGQLGVGRKFPSTTTPQIVEHLAGVPLAQISAGEAHSMALSMSGNIYSWGKNECGQLGLGHTESKDDPSLIEGLDNQKVEFVACGGSHSALLTQDGLLFTFGAGKHGQLGHNSTQNELRPCLVAELVGYRVTQIACGRWHTLAYVSDLGKVFSFGSGKDGQLGNGGTRDQLMPLPVKVSSSEELKLESHTSEKELIMIAGGNQSILLWIKKENSYVNLKRTIPTLNEGTVKRWIADVETKRWQSTKREIQEIFSSPACLTGSFLRKRRTTEMMPVYLDLNKARNIFKELTQKDWITNMITTCLKDNLLKRLPFHSPPQEALEIFFLLPECPMMHISNNWESLVVPFAKVVCKMSDQSSLVLEEYWATLQESTFSKLVQMFKTAVICQLDYWDESAEENGNVQALLEMLKKLHRVNQVKCQLPESIFQVDELLHRLNFFVEVCRRYLWKMTVDASENVQCCVIFSHFPFIFNNLSKIKLLHTDTLLKIESKKHKAYLRSAAIEEERESEFALRPTFDLTVRRNHLIEDVLNQLSQFENEDLRKELWVSFSGEIGYDLGGVKKEFFYCLFAEMIQPEYGMFMYPEGASCMWFPVKPKFEKKRYFFFGVLCGLSLFNCNVANLPFPLALFKKLLDQMPSLEDLKELSPDLGKNLQTLLDDEGDNFEEVFYIHFNVHWDRNDTNLIPNGSSITVNQTNKRDYVSKYINYIFNDSVKAVYEEFRRGFYKMCDEDIIKLFHPEELKDVIVGNTDYDWKTFEKNARYEPGYNSSHPTIVMFWKAFHKLTLEEKKKFLVFLTGTDRLQMKDLNNMKITFCCPESWNERDPIRALTCFSVLFLPKYSTMETVEEALQEAINNNRGFG
